Data: publication PMC11844288
These are yes or no findings as the source states them, for the method shown. Binding seen in cells or lysates may run through a third protein. Some entries that bind do so weakly or less than the wild type.

By UniProt entry, the sequences of proteins in these tests, tags left out.
UniProt P28482: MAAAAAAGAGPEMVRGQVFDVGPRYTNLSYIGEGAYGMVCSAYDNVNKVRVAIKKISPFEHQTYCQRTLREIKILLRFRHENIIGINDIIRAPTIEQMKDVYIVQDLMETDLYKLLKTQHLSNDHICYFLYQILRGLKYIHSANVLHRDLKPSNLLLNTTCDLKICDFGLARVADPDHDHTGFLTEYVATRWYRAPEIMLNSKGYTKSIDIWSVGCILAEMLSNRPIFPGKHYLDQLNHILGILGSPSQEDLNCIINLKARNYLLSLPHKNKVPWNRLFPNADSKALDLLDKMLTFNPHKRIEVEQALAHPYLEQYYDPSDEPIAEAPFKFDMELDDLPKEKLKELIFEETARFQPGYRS
UniProt Q99459: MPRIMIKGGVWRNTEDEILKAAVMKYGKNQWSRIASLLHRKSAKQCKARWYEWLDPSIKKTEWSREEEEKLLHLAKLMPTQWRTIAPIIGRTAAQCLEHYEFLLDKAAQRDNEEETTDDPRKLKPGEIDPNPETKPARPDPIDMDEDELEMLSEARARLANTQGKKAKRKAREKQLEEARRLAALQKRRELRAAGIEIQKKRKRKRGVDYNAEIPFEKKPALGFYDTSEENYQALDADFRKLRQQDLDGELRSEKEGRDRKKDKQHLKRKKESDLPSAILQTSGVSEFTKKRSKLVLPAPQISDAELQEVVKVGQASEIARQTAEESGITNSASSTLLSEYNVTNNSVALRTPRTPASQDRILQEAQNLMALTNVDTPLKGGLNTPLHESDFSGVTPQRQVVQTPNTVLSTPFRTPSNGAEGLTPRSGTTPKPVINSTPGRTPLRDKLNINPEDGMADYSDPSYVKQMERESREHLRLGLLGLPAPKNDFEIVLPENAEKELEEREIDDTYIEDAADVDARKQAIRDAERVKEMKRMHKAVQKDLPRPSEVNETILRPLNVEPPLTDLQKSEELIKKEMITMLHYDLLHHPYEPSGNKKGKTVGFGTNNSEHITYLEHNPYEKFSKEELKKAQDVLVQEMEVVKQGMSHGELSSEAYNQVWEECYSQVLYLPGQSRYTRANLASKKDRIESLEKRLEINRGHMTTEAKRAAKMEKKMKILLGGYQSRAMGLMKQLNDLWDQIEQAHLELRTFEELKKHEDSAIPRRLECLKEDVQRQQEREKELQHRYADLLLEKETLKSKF

Legend:
[1] = target: MAPK1 (human (endogenous in gastric cancer cells)) (UniProt P28482); assay: co-IP; protein A/G-agarose beads pre-incubated with antibodies 4 h at 4 C, overnight incubation with proteins (RIPA extract of GC cells) at 4 C, boiled in SDS, Western blot
[2] = target: Cell division cycle 5-like protein (CDC5L) (human) (UniProt Q99459); assay: as above

Row | Substance | binding [1] | binding [2]
1 | Cell division cycle 5-like protein (CDC5L) (from UniProt Q99459 1-802) | binds | 
2 | MAPK1 (from UniProt P28482 1-360) |  | binds
